Laboratory results published in PMC7819943, “Rice protein-binding microarrays: a tool to detect cis-acting elements near promoter regions in rice”.
Some of the results follow.

molecular target: T1, OsSMF1 (Oryza sativa, UniProt Q6ZLB0 1-436); assay: protein-binding microarray (RPBM); PBS, 2% BSA, 51.3 ng/ul salmon testes DNA, 50 uM zinc acetate, 200 nM TF, 25 C, 1 h; high values mean tight binding; conditions: protein: recombinant; tags: N-terminal polyhistidine and DsRed monomer fusion (pET32a); chain copies: 2; label: CyDye5-dUTP incorporated in the synthesized complementary strand; 3' TTTTT single-stranded linker to array surface; dsDNA, one strand shown
T1 sequence: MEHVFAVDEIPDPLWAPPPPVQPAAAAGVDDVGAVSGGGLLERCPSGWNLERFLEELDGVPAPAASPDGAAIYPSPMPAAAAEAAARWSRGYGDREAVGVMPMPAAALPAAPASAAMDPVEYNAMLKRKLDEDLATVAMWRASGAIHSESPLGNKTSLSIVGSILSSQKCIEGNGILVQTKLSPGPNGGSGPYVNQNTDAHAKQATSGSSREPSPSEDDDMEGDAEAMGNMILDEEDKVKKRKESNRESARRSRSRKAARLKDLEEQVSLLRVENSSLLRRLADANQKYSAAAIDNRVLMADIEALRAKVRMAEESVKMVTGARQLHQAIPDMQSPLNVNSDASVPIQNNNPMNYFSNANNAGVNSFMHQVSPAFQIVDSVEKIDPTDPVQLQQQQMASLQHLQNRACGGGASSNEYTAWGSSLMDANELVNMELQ
In short: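 Per-feature fluorescence intensity (arbitrary units), read on an Axon 4000B scanner, is the binding signal. Transcription factors carrying an N-terminal polyhistidine tag and DsRed fusion were expressed in E. coli BL21-CodonPlus and purified on Ni–NTA. A custom Agilent array, made double-stranded by primer extension with Cy5-dUTP and blocked with 2% BSA, was incubated with 200 nM protein in PBS, 2% BSA, salmon testes DNA and 50 µM zinc acetate at 25 °C for 1 h and then washed.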

| Sequence | binding signal |
| --- | --- |
| CTTCCATTTCCACGTGCTCATTCACGCCCGCATCATAAACCGGAGTCACCTAGTGCAG | 3430 fluorescence intensity (a.u.) |
| TGTTTACAGTTGTCTGATTCAGGGTCAATGTAATCGTCGTCGGAGTCACCTAGTGCAG | 3660 fluorescence intensity (a.u.) |
| CGAGTCTCCCGGGCCCACGCGTCATCCTCTCCATCCCCTCCGGAGTCACCTAGTGCAG | 3700 fluorescence intensity (a.u.) |
| GTTGAGCACGATGTCATCGTCGCACTCTCCCGACAGTCATCGGAGTCACCTAGTGCAG | 3900 fluorescence intensity (a.u.) |
| AAAGGAGGATCTTGTCCACATCGGATGCAGGGCAGGATAGCGGAGTCACCTAGTGCAG | 5400 fluorescence intensity (a.u.) |
| CCAAAGCGCCACCAACTGATGACTGCAACCTCTCATCAACCGGAGTCACCTAGTGCAG | 3480 fluorescence intensity (a.u.) |
| GTATTGTGTGTATTTATACATCATGAAAGAATAGAATAAACGGAGTCACCTAGTGCAG | 28600 fluorescence intensity (a.u.) |
| CGCTTGCACGCGTGTGTGCAGCGCGGCTGCATGCGTGGAGCGGAGTCACCTAGTGCAG | 5600 fluorescence intensity (a.u.) |
| CGAAGAAAGGCATCTGGTCCCGTGACGCTGCCGTGAAACACGGAGTCACCTAGTGCAG | 3920 fluorescence intensity (a.u.) |
| AATTCTTCTTCACATGCTTCTTCGCGTCATGCATAAACACCGGAGTCACCTAGTGCAG | 3510 fluorescence intensity (a.u.) |
| CCACCACGTCCTCCTCTCCACATCCTTTTCATCTCCCACCCGGAGTCACCTAGTGCAG | 5610 fluorescence intensity (a.u.) |
| TTCTTCCTTCAAAATTTCTTTCTCCTACTCAGCATTGCGTCGGAGTCACCTAGTGCAG | 4620 fluorescence intensity (a.u.) |
| ACAGCAATATTTATATAACCTTATGGCGTGTCAAACTTTCCGGAGTCACCTAGTGCAG | 6530 fluorescence intensity (a.u.) |
| AACTGTTCCTACTATATGCGCCGTGACAAGTGACTCAAATCGGAGTCACCTAGTGCAG | 4960 fluorescence intensity (a.u.) |
| ATATATATCCGTATATCCGATGTGACACGCCAAAACTTTACGGAGTCACCTAGTGCAG | 3580 fluorescence intensity (a.u.) |
| AGTCTAAATTTTCCCTGGGAAGTCTGAGCTGGATGACAGGCGGAGTCACCTAGTGCAG | 4120 fluorescence intensity (a.u.) |
| TTTGTGACTTACTTTATTATCAAAAGTACTTTAAGCATACCGGAGTCACCTAGTGCAG | 3160 fluorescence intensity (a.u.) |
| CATCTCGTGCTAGCTACATATATGCGTTGTCAATGACTGTCGGAGTCACCTAGTGCAG | 3930 fluorescence intensity (a.u.) |
| GAGGCAGTGTGTTGTGGAGTCGTATGGCGAGTCCTTGTCTCGGAGTCACCTAGTGCAG | 3460 fluorescence intensity (a.u.) |
| GCCCCTCGCCAACAACAGGCGCGACGAATCCGGTTCAAATCGGAGTCACCTAGTGCAG | 28400 fluorescence intensity (a.u.) |
| ACTGATCGGTCTTGCAAGCTATCGAGCACGCGCAGGCAGACGGAGTCACCTAGTGCAG | 20200 fluorescence intensity (a.u.) |

| Sequence | binding signal |
| --- | --- |
| TAGCTGTTTGACATAACGAGCTAGGCTGATACACTCATACCGGAGTCACCTAGTGCAG | 3210 fluorescence intensity (a.u.) |
| TCGTCGATCATCAACCGCATCAGCATCCATCCATCCATCCCGGAGTCACCTAGTGCAG | 3210 fluorescence intensity (a.u.) |
| AACATATTACTGTCAACTGATGACTTGGCTGTATTAGAAGCGGAGTCACCTAGTGCAG | 4360 fluorescence intensity (a.u.) |
| TTTTAGCGTGTTGTTAATCTCTCTGCAATAGCCTCTGATCCGGAGTCACCTAGTGCAG | 4520 fluorescence intensity (a.u.) |
| ACGTGACAACCGTTGCCTACTCATCTGACAGCATTATCCGCGGAGTCACCTAGTGCAG | 7020 fluorescence intensity (a.u.) |
| GTTAAATGGCTAAATGACTCATTTAATTCGCATTAGTGATCGGAGTCACCTAGTGCAG | 8460 fluorescence intensity (a.u.) |
| GGTTGTGTGGCTAAACGTGGCTAAGTGTGTGTGTGTGCGTCGGAGTCACCTAGTGCAG | 5140 fluorescence intensity (a.u.) |
| GCATTATTGGGACCTATATATCTTCTTTGCCACGTACAGTCGGAGTCACCTAGTGCAG | 7740 fluorescence intensity (a.u.) |
| TCCCATCAAATCTCCTCCAAACACTTGAGATCCATCCCTGCGGAGTCACCTAGTGCAG | 16500 fluorescence intensity (a.u.) |
| CGAGCCGCCTCCGCCACCGCCGCCTCCTTCCGACCAGCCGCGGAGTCACCTAGTGCAG | 3530 fluorescence intensity (a.u.) |
| TTTAGTACAAGCCACGTAAATGCCTTAGGGGCCTTGTTGCCGGAGTCACCTAGTGCAG | 6180 fluorescence intensity (a.u.) |
| GTATCACCGTGGTATACCACGTCATCTCACGGAGCGGGTTCGGAGTCACCTAGTGCAG | 12800 fluorescence intensity (a.u.) |
| GCGAGAGCTCTTCGTCTTCTCCAACTCGACCGGAAGCAAGCGGAGTCACCTAGTGCAG | 3940 fluorescence intensity (a.u.) |
| TTCAACCGTGCACTGTACTGTCACGCACGCACATAGTCGACGGAGTCACCTAGTGCAG | 3830 fluorescence intensity (a.u.) |
| TCGAGGCGTATGCCGTGGCGTGGCTTCCTGCCCCTGCGCTCGGAGTCACCTAGTGCAG | 7240 fluorescence intensity (a.u.) |
| CTCTCCTCCACGCCCACCTCACCTGCCCCTGCGCCTCCGCCGGAGTCACCTAGTGCAG | 3920 fluorescence intensity (a.u.) |
| CGAGTTTAAATTTTAGGCTTGACACGAGTGCTTGTATTTACGGAGTCACCTAGTGCAG | 4040 fluorescence intensity (a.u.) |
| AGATGGGCTTGAGAATGTGATGTCTCGTTTAATTGGGCCCCGGAGTCACCTAGTGCAG | 3310 fluorescence intensity (a.u.) |
| CGACCTCGTCGGCGTCGGCGTCGGCGGCTGGTCAACAACTCGGAGTCACCTAGTGCAG | 3140 fluorescence intensity (a.u.) |
| AAGAATTTAAAACACGTGCGCGCGGAAAAGATGAAGGTGGCGGAGTCACCTAGTGCAG | 3320 fluorescence intensity (a.u.) |
| CGTTCTTCAACGCCATCGCCACCTCATAAGCCTCTCTACTCGGAGTCACCTAGTGCAG | 4850 fluorescence intensity (a.u.) |

Some of the entries so far, as comma-separated lines:
Sequence,binding signal
TGTTTACAGTTGTCTGATTCAGGGTCAATGTAATCGTCGTCGGAGTCACCTAGTGCAG,3660 fluorescence intensity (a.u.)
CGAGTCTCCCGGGCCCACGCGTCATCCTCTCCATCCCCTCCGGAGTCACCTAGTGCAG,3700 fluorescence intensity (a.u.)
GTTGAGCACGATGTCATCGTCGCACTCTCCCGACAGTCATCGGAGTCACCTAGTGCAG,3900 fluorescence intensity (a.u.)
AAAGGAGGATCTTGTCCACATCGGATGCAGGGCAGGATAGCGGAGTCACCTAGTGCAG,5400 fluorescence intensity (a.u.)
